The other results are listed elsewhere or left out. The data scatter; read single values as rough.
Compound: ClCC(=O)N[C@@H]1CCCc2ccccc12
Test: log2 mean competition ratio of IA-DTB cysteine labelling (DMSO/compound) (log2 ratio); higher = stronger cysteine engagement by compound
Settings: 50 µM; treatment time: 4 h; cell line lysate: HEK293T
Method: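 IA-DTB competitive cysteine chemoproteomics in HEK293T RIPA lysate. Lysates were treated with compound 29 or 30 at 50 or 200 µM for 4 h, then IA-DTB (500 µM, 1 h), trypsin-digested, NeutrAvidin-enriched and analysed by diaPASEF. Competition ratio = intensity DMSO / intensity compound (n=4 treated, n=64 DMSO); binding: mean log2 CR ≥ 1 and p ≤ 0.05 plus QC filters. Target is the cysteine site.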

Sequences of proteins named here, by UniProt entry; tags and fusion partners are left off. A change or cut given only in a name is not applied to a line headed by its entry. Residues count along the entry.
UniProt P38606: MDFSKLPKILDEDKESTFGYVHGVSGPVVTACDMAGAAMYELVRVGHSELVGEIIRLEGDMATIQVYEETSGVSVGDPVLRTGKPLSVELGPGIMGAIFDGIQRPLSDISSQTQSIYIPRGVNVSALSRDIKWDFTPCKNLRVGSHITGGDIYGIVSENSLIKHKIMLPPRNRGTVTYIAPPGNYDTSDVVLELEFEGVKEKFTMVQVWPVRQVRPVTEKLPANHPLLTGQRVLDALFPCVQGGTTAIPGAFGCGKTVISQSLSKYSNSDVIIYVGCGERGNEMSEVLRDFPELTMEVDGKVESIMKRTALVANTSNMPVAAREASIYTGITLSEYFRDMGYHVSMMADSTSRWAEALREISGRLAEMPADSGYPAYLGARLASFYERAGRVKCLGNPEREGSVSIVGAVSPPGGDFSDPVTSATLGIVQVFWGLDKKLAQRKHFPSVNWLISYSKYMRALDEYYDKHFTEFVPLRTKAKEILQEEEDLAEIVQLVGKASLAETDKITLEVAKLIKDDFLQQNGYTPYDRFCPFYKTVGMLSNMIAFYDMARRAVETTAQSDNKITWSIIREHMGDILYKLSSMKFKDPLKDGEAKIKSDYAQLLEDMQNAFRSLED
UniProt Q6VMQ6, 101-124: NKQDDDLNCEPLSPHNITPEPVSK
UniProt O00512: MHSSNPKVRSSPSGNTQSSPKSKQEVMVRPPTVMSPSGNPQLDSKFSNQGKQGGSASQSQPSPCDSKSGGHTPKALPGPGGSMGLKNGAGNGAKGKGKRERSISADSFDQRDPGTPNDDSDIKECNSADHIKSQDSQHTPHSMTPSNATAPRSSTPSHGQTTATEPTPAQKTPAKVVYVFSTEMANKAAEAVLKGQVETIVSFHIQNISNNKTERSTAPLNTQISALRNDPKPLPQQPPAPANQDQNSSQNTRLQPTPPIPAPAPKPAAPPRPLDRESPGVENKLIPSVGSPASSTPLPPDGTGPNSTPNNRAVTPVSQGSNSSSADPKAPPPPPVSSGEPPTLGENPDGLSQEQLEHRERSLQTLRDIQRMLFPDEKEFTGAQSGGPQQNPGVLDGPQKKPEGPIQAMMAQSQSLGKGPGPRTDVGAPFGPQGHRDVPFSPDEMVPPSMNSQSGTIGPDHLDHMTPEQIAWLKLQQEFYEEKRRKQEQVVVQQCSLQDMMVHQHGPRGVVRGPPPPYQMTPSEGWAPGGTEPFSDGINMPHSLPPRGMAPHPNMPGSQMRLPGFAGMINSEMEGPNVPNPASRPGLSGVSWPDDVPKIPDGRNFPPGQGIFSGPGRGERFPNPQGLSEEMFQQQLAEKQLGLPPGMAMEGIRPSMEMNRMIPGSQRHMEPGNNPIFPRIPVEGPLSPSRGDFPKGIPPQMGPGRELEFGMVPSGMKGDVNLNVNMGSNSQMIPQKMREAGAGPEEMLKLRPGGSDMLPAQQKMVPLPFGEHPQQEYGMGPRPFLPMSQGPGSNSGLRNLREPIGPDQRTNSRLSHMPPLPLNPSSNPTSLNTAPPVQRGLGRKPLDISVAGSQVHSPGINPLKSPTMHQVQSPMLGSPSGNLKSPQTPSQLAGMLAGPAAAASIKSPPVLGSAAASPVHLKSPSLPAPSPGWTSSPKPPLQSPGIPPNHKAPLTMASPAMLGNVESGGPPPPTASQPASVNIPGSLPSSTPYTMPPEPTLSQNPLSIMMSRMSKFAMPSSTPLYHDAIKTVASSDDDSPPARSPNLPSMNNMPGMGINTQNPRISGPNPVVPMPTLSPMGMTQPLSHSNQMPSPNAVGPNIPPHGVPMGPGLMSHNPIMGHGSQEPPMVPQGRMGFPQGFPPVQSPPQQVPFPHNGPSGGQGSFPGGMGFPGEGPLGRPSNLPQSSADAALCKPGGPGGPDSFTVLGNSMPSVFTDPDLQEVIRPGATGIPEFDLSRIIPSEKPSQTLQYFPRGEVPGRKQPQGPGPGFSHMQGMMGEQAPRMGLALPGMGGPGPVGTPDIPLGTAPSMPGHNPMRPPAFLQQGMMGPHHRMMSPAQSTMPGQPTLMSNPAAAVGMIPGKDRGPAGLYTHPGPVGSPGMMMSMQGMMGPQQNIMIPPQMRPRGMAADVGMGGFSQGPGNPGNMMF
UniProt P61421: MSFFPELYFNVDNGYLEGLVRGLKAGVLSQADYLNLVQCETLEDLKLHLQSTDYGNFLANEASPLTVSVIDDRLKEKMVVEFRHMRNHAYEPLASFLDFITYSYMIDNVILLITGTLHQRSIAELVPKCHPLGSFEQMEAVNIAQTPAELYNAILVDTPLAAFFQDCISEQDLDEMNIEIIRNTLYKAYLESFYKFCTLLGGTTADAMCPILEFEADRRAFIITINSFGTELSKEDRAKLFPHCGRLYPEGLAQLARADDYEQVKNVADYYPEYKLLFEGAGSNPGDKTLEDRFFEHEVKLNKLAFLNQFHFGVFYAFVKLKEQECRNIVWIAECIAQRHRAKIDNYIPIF
UniProt P11274, 235-254: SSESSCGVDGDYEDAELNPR
UniProt Q6W2J9: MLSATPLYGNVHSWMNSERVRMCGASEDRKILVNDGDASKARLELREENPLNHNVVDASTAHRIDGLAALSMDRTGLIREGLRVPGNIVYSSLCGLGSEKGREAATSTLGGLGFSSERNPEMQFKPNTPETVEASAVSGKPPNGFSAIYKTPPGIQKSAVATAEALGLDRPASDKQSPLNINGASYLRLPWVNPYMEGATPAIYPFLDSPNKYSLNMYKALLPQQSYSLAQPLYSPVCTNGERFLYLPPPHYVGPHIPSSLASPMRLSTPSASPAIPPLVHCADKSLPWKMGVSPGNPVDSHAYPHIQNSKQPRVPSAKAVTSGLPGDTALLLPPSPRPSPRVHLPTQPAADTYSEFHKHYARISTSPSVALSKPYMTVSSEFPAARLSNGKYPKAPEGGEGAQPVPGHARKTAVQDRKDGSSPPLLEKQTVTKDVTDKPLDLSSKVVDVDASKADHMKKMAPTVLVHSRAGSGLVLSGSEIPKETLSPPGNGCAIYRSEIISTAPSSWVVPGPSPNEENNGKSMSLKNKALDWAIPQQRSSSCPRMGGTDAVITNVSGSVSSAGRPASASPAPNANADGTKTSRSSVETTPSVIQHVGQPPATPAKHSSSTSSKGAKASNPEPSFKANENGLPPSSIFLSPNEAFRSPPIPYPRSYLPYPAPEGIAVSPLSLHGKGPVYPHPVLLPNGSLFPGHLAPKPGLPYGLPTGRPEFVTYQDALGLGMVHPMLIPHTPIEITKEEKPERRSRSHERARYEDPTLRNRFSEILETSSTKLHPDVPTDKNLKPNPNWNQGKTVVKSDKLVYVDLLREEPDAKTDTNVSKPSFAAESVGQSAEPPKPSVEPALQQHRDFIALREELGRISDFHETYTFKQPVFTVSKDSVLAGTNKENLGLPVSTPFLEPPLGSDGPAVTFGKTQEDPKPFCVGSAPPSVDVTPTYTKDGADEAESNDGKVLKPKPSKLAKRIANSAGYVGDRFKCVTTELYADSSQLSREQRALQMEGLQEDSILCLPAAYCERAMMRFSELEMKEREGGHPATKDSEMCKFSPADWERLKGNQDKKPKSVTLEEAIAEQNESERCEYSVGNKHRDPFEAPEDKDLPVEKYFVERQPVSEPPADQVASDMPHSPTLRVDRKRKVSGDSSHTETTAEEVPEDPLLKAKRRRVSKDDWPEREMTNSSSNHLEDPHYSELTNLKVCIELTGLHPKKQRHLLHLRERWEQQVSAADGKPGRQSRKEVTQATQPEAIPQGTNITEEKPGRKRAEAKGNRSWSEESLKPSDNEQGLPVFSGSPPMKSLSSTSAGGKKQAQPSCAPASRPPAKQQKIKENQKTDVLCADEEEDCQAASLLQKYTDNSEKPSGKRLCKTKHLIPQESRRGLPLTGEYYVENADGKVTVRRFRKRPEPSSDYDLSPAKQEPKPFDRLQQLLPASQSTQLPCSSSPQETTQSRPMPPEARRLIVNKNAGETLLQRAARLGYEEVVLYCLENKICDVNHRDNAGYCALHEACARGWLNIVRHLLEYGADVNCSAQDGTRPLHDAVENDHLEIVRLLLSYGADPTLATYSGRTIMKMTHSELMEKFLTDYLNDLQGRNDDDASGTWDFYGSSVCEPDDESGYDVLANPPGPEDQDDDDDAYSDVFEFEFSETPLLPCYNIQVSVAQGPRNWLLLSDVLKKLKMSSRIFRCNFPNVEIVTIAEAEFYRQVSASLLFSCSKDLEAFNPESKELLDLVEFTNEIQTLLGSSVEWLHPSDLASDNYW
UniProt Q04656, 270-289: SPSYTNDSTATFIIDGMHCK
UniProt Q96BY7, 864-894: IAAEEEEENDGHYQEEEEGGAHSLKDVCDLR
UniProt Q9UBB4: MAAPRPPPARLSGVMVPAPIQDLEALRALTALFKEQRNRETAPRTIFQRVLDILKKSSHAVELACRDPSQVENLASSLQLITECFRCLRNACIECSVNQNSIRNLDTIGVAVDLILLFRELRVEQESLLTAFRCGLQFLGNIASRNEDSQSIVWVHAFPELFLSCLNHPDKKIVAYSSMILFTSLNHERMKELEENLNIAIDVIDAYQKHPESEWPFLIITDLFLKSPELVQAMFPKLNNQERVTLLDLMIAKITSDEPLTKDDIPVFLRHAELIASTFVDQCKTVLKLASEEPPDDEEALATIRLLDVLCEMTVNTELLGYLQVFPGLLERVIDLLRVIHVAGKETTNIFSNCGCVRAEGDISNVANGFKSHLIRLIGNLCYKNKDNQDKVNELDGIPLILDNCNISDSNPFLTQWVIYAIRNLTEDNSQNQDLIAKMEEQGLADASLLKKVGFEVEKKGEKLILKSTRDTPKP
UniProt Q96QE3: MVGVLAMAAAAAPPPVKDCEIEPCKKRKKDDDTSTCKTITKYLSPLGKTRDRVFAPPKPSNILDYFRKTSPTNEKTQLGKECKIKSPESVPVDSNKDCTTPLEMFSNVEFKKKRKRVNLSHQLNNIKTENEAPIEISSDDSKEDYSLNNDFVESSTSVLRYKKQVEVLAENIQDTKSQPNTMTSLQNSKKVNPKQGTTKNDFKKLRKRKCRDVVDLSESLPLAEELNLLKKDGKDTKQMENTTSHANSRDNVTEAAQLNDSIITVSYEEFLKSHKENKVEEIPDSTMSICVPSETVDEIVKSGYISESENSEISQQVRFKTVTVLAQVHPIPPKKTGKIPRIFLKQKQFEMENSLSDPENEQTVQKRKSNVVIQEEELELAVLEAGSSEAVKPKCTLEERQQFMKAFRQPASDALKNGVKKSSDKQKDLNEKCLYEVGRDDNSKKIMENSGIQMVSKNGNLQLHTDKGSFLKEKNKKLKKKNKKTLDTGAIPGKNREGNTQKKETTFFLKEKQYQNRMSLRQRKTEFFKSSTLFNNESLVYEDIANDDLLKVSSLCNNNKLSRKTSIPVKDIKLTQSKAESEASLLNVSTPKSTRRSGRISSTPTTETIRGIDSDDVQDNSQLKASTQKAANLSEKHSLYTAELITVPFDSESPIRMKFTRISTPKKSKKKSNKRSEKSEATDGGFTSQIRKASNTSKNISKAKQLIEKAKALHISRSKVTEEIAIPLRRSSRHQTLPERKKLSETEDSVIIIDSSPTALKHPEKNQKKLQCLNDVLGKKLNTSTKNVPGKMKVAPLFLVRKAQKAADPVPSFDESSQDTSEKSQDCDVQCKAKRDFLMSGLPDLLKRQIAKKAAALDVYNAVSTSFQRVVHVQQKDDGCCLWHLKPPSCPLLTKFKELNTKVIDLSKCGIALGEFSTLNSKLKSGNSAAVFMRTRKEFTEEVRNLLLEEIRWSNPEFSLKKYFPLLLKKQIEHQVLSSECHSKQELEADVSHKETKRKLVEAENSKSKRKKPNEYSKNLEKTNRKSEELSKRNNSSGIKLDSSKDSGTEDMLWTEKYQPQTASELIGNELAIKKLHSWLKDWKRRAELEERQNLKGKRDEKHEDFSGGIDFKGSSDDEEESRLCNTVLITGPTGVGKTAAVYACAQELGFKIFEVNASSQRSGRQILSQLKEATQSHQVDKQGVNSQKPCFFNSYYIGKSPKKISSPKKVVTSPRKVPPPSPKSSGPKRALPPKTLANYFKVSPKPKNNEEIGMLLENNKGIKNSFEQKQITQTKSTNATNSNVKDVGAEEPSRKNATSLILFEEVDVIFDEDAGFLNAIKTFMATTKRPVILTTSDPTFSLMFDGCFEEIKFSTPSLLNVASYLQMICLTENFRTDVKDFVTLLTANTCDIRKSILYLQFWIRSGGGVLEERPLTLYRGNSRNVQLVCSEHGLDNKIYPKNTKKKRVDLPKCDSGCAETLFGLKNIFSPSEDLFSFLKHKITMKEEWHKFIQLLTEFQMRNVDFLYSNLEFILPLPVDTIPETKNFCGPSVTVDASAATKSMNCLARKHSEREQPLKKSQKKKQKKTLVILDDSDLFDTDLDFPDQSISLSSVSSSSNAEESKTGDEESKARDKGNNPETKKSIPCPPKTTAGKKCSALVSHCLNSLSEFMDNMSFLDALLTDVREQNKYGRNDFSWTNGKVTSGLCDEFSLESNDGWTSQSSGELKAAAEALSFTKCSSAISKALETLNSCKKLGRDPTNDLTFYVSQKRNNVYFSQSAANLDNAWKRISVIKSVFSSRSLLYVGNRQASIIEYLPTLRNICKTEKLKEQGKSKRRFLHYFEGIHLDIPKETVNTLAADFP

Target | log2 mean competition ratio
BBX C606 (UniProt Q8WY36) | 0.153
ATP6V1A C277 (UniProt P38606) | -0.0852
ATF2 C418 (UniProt P15336) | 0.512
ATAD1 C310 (UniProt Q8NBU5) | -0.133
ATG16L1 C506 (UniProt Q676U5) | -0.384
BLOC1S3 C180 (UniProt Q6QNY0) | 0.599
ATF7IP C451 (UniProt Q6VMQ6) | 0.285
BCL9 C64 (UniProt O00512) | 0.13

Look-ups from the results shown:
Entry of ATG16L1 C506 (UniProt Q676U5) under log2 mean competition ratio: -0.384
Entry of ATP6V1A C277 (UniProt P38606) under log2 mean competition ratio: -0.0852

Same assay, conditions: 200 µM; treatment time: 4 h; cell line lysate: HEK293T

Target | log2 mean competition ratio
ATP6V0D1 C335 (UniProt P61421) | -0.0622
BCR C240 (UniProt P11274) | 0.299
BIRC6 C752 | 0.157
ATF7IP C109 (UniProt Q6VMQ6) | 0.0582
ATP13A2 C365 (UniProt Q9NQ11) | 0.0856
BIRC6 C2910 | -0.211
ATP2A2 C669 (UniProt P16615) | 0.0568
BAZ1B C497 (UniProt Q9UIG0) | 0.264
BCOR C23 (UniProt Q6W2J9) | -0.148
ATP2A3 C447 (UniProt Q93084) | -0.0442
ATP6V1B2 C112 (UniProt P21281) | -0.265
BIRC6 C777 | 0.00802
ASPSCR1 C48 (UniProt Q9BZE9) | -0.0426
ATP7A C288 (UniProt Q04656) | -0.073
ATG2B C891 (UniProt Q96BY7) | 0.0793
ATXN10 C65 (UniProt Q9UBB4) | -0.165
ATRX C1844 (UniProt P46100) | -0.00898
ATAD5 C909 (UniProt Q96QE3) | 0.135
ATXN2 C892 | -0.295
ASNS C158 (UniProt P08243) | -0.115

Source: the supplement of paper PMC11732987, “Enantioselective OTUD7B fragment discovery through chemoproteomics screening and high-throughput optimisation” (Communications Chemistry, 2025)
